This passage reports binding results from paper doi:10.1101/526509.

By UniProt entry, the sequences of proteins in these tests, tags left out.
UniProt Q63357: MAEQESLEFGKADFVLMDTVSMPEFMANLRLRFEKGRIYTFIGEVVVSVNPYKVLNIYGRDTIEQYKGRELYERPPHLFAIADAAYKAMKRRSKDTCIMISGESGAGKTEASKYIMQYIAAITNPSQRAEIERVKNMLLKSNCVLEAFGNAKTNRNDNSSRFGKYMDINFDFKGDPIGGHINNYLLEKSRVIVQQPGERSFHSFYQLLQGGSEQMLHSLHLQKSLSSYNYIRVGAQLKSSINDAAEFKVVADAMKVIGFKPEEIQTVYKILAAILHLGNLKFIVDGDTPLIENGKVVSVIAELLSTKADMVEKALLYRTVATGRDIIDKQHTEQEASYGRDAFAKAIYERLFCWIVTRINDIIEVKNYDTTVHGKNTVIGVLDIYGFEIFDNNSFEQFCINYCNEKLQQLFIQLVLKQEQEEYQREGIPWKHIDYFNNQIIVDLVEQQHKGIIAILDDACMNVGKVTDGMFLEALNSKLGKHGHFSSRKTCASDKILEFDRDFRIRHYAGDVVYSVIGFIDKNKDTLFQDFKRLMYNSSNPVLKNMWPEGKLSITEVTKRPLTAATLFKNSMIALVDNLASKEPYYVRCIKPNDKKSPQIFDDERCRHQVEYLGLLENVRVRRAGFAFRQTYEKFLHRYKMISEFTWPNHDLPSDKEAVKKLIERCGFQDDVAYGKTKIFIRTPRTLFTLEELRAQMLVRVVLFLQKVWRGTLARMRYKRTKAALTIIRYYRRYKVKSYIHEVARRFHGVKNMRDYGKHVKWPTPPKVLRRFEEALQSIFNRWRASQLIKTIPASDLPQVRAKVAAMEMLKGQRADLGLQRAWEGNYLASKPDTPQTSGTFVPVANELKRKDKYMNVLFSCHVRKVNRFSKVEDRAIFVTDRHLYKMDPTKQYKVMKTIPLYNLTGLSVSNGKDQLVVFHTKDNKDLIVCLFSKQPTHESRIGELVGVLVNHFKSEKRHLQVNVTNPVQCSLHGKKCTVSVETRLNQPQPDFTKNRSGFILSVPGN
UniProt P70569: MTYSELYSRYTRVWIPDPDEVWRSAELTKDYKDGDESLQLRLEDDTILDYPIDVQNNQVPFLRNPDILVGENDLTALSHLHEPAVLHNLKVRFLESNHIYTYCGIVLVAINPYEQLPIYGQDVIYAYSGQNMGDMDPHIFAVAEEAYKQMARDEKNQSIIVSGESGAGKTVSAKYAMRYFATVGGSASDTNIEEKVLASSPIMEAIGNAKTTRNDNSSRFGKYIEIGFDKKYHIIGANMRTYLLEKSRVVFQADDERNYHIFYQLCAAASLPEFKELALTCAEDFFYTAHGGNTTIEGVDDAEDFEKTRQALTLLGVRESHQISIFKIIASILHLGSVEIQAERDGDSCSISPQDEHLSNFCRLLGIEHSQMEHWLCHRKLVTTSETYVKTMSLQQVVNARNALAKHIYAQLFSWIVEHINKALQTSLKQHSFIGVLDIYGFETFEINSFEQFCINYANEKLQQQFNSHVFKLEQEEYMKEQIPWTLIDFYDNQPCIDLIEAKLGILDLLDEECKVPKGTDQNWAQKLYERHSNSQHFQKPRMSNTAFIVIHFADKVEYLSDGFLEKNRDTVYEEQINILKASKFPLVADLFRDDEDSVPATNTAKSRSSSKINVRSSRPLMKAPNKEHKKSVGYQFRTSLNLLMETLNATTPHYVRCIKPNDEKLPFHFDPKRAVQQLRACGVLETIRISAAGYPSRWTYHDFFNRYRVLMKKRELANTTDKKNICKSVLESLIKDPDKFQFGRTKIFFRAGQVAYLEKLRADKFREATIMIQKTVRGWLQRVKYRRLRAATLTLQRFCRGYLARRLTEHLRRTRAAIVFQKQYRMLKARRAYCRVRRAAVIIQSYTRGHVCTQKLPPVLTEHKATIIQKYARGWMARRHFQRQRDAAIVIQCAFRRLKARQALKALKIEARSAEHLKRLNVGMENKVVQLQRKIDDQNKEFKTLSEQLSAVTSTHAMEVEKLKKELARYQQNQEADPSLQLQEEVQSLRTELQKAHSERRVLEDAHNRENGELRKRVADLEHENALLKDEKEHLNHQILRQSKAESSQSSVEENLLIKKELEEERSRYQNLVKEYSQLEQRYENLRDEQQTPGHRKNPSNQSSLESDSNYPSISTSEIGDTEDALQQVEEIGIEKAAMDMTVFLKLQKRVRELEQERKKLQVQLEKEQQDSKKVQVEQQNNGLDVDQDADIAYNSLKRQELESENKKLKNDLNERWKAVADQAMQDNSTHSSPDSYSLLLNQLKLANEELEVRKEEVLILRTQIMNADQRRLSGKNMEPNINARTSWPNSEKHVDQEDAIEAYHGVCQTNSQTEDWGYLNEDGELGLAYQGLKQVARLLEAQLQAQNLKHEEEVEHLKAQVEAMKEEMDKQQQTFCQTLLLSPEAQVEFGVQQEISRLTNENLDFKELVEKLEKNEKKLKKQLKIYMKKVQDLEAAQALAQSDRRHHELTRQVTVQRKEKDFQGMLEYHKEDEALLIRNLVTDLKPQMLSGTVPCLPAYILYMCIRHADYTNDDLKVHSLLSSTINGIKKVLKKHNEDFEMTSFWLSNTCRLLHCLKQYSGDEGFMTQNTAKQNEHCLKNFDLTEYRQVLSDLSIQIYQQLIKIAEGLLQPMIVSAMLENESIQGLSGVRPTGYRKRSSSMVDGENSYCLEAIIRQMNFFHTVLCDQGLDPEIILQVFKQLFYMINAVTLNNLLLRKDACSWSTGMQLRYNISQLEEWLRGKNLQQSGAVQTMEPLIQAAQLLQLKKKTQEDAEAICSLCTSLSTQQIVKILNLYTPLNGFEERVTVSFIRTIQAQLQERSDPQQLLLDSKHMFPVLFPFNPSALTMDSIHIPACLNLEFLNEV
UniProt Q9QYF3: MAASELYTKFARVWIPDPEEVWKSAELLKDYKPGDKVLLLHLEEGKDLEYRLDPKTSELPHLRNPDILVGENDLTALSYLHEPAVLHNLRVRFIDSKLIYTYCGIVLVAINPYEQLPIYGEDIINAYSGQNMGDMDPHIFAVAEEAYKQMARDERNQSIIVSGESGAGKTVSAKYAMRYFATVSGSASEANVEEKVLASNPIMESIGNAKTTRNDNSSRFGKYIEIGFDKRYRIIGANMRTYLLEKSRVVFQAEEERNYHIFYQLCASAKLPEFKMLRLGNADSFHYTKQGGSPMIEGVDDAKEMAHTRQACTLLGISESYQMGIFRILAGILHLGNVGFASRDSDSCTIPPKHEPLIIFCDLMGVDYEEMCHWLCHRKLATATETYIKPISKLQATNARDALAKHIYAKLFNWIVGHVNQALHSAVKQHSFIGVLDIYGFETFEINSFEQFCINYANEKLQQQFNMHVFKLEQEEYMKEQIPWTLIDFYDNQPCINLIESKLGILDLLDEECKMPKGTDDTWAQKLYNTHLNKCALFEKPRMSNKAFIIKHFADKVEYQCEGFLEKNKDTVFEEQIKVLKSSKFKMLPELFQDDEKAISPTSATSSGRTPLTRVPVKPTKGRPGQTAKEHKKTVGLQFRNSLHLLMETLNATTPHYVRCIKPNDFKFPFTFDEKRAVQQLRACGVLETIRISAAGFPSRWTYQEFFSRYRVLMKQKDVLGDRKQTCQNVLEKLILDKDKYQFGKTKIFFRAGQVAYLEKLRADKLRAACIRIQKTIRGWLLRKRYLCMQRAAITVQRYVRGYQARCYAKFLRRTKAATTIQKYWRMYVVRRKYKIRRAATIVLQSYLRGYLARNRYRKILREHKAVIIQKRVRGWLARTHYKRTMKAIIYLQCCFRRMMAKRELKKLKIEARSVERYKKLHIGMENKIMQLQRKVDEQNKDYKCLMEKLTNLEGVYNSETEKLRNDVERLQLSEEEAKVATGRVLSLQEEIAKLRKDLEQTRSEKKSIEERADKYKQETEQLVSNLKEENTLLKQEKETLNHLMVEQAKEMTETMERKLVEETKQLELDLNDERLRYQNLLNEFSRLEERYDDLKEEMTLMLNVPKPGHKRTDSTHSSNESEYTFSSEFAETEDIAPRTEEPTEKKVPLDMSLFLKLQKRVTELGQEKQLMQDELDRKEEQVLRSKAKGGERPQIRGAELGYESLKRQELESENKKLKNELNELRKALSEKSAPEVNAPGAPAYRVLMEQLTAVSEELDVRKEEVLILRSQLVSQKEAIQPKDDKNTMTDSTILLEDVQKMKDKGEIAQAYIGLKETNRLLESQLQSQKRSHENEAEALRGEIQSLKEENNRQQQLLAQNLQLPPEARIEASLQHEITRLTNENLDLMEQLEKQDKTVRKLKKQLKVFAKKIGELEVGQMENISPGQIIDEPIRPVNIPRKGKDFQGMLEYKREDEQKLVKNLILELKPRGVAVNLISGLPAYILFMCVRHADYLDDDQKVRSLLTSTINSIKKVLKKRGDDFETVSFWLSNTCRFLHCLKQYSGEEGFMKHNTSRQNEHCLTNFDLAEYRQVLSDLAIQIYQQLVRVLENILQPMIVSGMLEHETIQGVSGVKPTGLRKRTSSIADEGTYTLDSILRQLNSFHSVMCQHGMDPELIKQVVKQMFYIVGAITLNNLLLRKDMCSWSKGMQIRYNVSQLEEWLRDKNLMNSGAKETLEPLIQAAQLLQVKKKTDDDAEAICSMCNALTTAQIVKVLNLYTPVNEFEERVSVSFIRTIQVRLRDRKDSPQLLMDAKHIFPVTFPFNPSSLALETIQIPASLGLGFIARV

In the experiment the target is T1, bio-GFP-synaptopodin (mouse) (UniProt Q8CC35).
T1 sequence (chain, biotin (biotinylated; HA-BirA co-expressed)): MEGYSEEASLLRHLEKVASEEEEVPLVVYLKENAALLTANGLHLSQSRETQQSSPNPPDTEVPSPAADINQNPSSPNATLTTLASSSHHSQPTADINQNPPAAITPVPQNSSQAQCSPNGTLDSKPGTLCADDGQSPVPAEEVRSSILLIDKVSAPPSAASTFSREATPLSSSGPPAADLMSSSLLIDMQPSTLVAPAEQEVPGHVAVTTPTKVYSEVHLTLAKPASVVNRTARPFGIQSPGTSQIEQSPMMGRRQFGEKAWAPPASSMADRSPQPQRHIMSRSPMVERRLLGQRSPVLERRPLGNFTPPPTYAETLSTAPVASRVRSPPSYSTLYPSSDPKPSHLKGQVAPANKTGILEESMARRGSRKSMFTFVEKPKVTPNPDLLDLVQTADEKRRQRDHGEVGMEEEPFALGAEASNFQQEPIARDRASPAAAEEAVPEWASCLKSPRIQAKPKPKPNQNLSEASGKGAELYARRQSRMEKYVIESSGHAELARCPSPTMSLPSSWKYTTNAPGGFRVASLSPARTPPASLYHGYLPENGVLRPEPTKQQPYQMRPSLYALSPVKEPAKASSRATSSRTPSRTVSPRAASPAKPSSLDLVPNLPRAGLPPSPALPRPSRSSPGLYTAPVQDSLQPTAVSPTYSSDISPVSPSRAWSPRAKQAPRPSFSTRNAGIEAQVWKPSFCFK
In words: pull-down.

Results are given in words; binding and its absence hold for the method and conditions named. In cells and extracts the contact can be indirect. Some binding calls cover weakened binding; strength is not graded here. Sequences can lack the tags named with a protein.

Consider myosin Id (from UniProt Q63357 1-1006), for which the binding entry was “binds”.
The value for myosin Vb (from UniProt P70569 1-1846) was “binds”; that for myosin Va (from UniProt Q9QYF3 1-1828) was “binds”.
